Experimental data as given in patent US20040086498A9, “Cancer therapy” (priority 1999, published 2004).
Some entries share one result that the patent states for a list of compounds.

How the values were obtained:
EL-4 tumours = experiment: Treatment of large established EL-4 tumours with CAM gene transfer, DMXAA/FAA or timed combination; type: in vivo, C57BL/6 mice; details: large EL-4 tumours 0.6-0.8 cm; DMXAA or FAA monotherapy; animals sacrificed during sixth week
Method: Female C57BL/6 mice, 6-9 weeks old, were obtained from the Animal Resource Unit, School of Medicine and Health Science, University of Auckland, Auckland. The EL-4 thymic lymphoma and mouse Lewis lung carcinoma cells (LLC) (H-2b) were purchased from the American Type Culture Collection (Rockville, Md). These cell lines were cultured in vitro at 37° C. in DMEM medium (Gibco BRL), supplemented with 10% foetal calf serum, 50 U/ml penicillin/streptomycin, 2 mM L-glutamine, 1 mM pyruvate.
Experimental Tumour Model.
Administration FAA and DMXAA Analogues. FAA was gifted from the Department of Health & Human Services, Drug Synthesis & Chemistry laboratory, National Cancer Institute, Bethesda, USA. The sodium salt of DMXAA was synthesized in the Auckland Cancer Society Research Centre, School of Medicine and Health Science, University of Auckland. Solutions of FAA and DMXAA in 5% (w/v) sodium bicarbonate and water, respectively, were prepared fresh for each experiment and protected from light. FAA and DMXAA were injected i.p. at 300 mg/Kg and 25 mg/Kg of body weight in a volume of 0.01 ml/g body weight, respectively.
Gene Transfer of B7.1. […]

[1] = Baguley et al, 1993; Pedley et al, 1996; cited from earlier work

Cc1ccc2c(=O)c3cccc(CC(=O)O)c3oc2c1C [DMXAA, 5,6-dimethylxanthenone-4-acetic acid]
day by which tumours began to grow unchecked (EL-4 tumours): ≤ 28 days
range of doses active and acceptable in terms of toxicity [1]: 22.5-25 mg/Kg body weight
